Primary screen of a compound library

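Whole-cell assay for inhibitors of Mycobacterium tuberculosis growth, labelled Cornell in the record; the read-out is not stated. The concentration is filed as 10 mM, unlikely as a test dose, so the dose is not known. Higher means stronger inhibition (inferred from two other growth screens of the library). About 53,000 compounds were tested under these conditions; 1.7% (about 900) showed 50% or more at least once.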

Each number is a percent effect as filed. How 0% and 100% were set is not recorded. Most values in the screen are low, and negative values occur. Compounds were drawn at random from those tested, without regard to their results.

- CC(C)NC(=O)N1CCC2(CCCO2)C1 (configuration not stated) : -25.59%
- CC[C@H](C)[C@@H](CO)NC(C)Cc1ccc(Cl)cc1 (some centres not stated) : 28.36%
- CCN(CCC(=O)NC1CC1)Cc1ccc(Cl)s1 : 2.164%
- Cc1nn(C)c(C)c1C(C)NC(=O)Nc1cccnc1N1CCCC1 (configuration not stated) : 8.341%
- CC1CCCCN1C1CN(C(=O)c2sccc2S(N)(=O)=O)C1 (configuration not stated) : 20.29%
- [H][C@]12C[C@H](C(=O)NC)N(C)[C@@]1([H])CN(C(=O)c1cncc(C)c1)C2 : -77.35%
- CCCn1cc(C(=O)N[C@H]2CC[C@H](n3cnnc3)CC2)c(C)n1 : 12.3%
- Cn1cc(C2CC(=O)NC23CCN(Cc2ccncc2)CC3)cn1.O=C(O)C(F)(F)F.O=C(O)C(F)(F)F (configuration not stated) : -10.97%
- Cc1ccc(Cl)cc1NC(=O)Nc1c[nH]c(=O)[nH]c1=O : 22.98%
- Cc1cnn(CCNCC(=O)NC2(C#N)CCCC2)c1 : -3.433%
- O=C(NCC1CC1)c1cc2c(s1)CCN2C(=O)c1ccc(F)cc1 : -18.19%
- CCc1nnc(C2Cc3ccccc3CN2Cc2cc(C)on2)o1 (configuration not stated) : -2.088%
- CCC(C)C(=O)Nc1ccc(CCN2CCOCC2)cc1 (configuration not stated) : -8.81%
- CN(C)C(=O)CC1CC2(CCN(Cc3ccco3)CC2)c2ccccc21.O=C(O)C(F)(F)F (configuration not stated) : 18.47%
- CN(C)c1ccc(NC(=O)C2CN(Cc3ccccc3)CCO2)cn1 (configuration not stated) : 3.758%
- COCC1CN(C(=O)COc2ccccc2)Cc2ncn(C)c21.O=C(O)C(F)(F)F (configuration not stated) : 25.46%
- CCc1[nH]c2c(CNc3cncc(C(=O)N(C)C)n3)cc(F)cc2c1C : 11.23%
- CCOC1CCCN(C(=O)CCOc2ccc(C)cc2OC)C1 (configuration not stated) : -35.29%
- Cc1n[nH]c2ncc(CNC3CCCN(c4ncccn4)C3)cc12.Cl (configuration not stated) : -49.91%
- COCC1CC2(CCN(c3ccccn3)CC2)CN1C(C)C.O=C(O)C(F)(F)F.O=C(O)C(F)(F)F (configuration not stated) : 0.5703%
- CC(C)NC(=O)C1CN(C(=O)Nc2ccc(F)cc2)CC12CCOCC2 (configuration not stated) : 3.095%
- CC(C)(C)c1ncc(C(=O)NCCn2ccnc2)s1 : -1.837%
- COCc1cnc2n1CCN(C(=O)c1ccc3ccccc3n1)C2C.O=C(O)C(F)(F)F (configuration not stated) : -5.104%
- O=C(NCC1CCCN1CCc1ccccc1)NCC1(O)CCC1 (configuration not stated) : 1.522%
- CCC(NC(=O)c1cc(CC(C)C)nn1C)c1cccc(C)n1 (configuration not stated) : -27.11%
- Cc1nn(CCO)c(C)c1CNC1CCOc2ccccc21.Cl (configuration not stated) : 28.69%
- COC1CCN(CCNC(=O)C2CCCCC2)CC1 : 20.64%
- O=C(NCCN1CCOCC1)N(Cc1ccoc1)C1CCCCC1 : 13.66%
- CCc1cc(NCCCN(C)C2CCCC2)ncn1 : 2.185%
- Cc1cc(Cl)cc(C)c1CNC1CCN(CC(=O)N(C)C)CC1 : 12.23%
- CCOc1ncccc1C(=O)NCC(O)c1ccc(F)c(F)c1 (configuration not stated) : 19.04%
- Cc1ncsc1C(=O)NCCNc1cnccn1 : 14.15%
- CCC(=O)Nc1nnc2n(Cc3cccc(OC)c3)[nH]c(C)c1-2 : 47.34%
- Cc1ccc(NS(C)(=O)=O)c(C(=O)NCCC(=O)NC(C)C)c1 : -18.28%
- COCCCN1Cc2cccc(NC(=O)C(C)(C)C)c2C1 : -37.77%
- O=c1cc(CN2CCCC2)nc2n1CCCN(CC1CCOCC1)C2 : -21.79%
- CC(C)CCn1[nH]c(CNc2ccc(F)cc2)nc1=O : 30.85%
- CCOCC1CN(Cc2ccoc2)Cc2cn(CC3CC3)nc21 (configuration not stated) : -29.28%
- Cc1nc(N(C)C)nc(NCCc2ccccn2)c1C : 16.31%
- Cc1ccc(CNC(=O)C2=NOC3(CCCNC3)C2)cc1 (configuration not stated) : -24.79%
- Cc1cccc(CN2CCc3[nH]nc(C(=O)N4CCOCC4)c3C2)n1 : -12.93%
- COCC(=O)NCc1cc2n(n1)CCCN(Cc1ccccc1SC)C2 : -3.633%
- CC(CNC(=O)c1c[nH]nn1)Oc1cccc(Br)c1 (configuration not stated) : 22.35%
- O=C(O)C(F)(F)F.O=C(c1ccnnc1)N1CC[C@]2(C[C@H](Oc3ncccc3F)CO2)C1 : -28.08%
- Cn1ncc(N2CCC(CNC3CC(c4ccccc4)C3)CC2)cc1=O (configuration not stated) : 21.42%
- [H][C@]12CCN(C(=O)c3ccc4c(c3)CCC4)CC[C@]1([H])N(C(C)C)C(=O)CO2 : 7.509%
- O=C(Cc1cnn(-c2ccccc2)n1)NC(C1CC1)C1CC1 : 33.05%

Repeated from the top, 2 entries:

compound,percent effect
CC(C)NC(=O)N1CCC2(CCCO2)C1 (configuration not stated),-25.59
CC[C@H](C)[C@@H](CO)NC(C)Cc1ccc(Cl)cc1 (some centres not stated),28.36

The values are deposited in ChEMBL (CHEMBL3988442, “University of Dundee, Small-Polar-MMV Screening Library” (2021)).